The exact form of at least one protein or probe is not confirmed. For some assays here: A negative result means that nothing was seen under these conditions. For some assays here: Where a protein sequence is shown, tags need not be part of it.
Experiments:
[1] = biological target: T1, NF-kappaB p50 (Homo sapiens) (UniProt P19838); test: binding assay; details: purified recombinant protein, protein details: Promega
T1 sequence (looked up, limits assumed): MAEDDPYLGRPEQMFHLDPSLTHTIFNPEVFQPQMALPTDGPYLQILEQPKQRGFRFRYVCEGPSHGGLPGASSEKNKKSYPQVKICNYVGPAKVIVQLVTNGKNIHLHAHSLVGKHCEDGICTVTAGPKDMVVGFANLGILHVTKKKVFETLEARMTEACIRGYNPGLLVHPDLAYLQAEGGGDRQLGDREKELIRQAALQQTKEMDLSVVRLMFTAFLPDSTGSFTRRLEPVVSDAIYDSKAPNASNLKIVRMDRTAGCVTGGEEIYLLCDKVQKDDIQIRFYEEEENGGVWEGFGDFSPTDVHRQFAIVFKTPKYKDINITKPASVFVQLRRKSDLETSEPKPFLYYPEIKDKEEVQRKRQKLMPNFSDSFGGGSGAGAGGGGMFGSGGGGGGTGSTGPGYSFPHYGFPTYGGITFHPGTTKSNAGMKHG

Chains of the proteins cited; added tags and fusions are not shown. Residues count along the entry.
UniProt Q15554, 87-542, stated change not applied: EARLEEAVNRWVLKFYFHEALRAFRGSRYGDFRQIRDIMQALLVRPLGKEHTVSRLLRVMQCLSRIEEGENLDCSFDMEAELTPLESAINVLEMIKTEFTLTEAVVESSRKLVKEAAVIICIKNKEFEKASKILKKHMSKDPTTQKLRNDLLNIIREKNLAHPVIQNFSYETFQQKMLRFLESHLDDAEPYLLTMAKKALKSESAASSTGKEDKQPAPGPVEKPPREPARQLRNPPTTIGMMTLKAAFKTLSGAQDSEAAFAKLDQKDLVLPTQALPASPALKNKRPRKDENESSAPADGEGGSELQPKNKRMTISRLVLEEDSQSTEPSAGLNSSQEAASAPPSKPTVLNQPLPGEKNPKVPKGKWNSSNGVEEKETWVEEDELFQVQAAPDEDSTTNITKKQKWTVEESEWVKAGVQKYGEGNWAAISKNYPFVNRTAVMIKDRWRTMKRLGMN
UniProt P08047, 2-785: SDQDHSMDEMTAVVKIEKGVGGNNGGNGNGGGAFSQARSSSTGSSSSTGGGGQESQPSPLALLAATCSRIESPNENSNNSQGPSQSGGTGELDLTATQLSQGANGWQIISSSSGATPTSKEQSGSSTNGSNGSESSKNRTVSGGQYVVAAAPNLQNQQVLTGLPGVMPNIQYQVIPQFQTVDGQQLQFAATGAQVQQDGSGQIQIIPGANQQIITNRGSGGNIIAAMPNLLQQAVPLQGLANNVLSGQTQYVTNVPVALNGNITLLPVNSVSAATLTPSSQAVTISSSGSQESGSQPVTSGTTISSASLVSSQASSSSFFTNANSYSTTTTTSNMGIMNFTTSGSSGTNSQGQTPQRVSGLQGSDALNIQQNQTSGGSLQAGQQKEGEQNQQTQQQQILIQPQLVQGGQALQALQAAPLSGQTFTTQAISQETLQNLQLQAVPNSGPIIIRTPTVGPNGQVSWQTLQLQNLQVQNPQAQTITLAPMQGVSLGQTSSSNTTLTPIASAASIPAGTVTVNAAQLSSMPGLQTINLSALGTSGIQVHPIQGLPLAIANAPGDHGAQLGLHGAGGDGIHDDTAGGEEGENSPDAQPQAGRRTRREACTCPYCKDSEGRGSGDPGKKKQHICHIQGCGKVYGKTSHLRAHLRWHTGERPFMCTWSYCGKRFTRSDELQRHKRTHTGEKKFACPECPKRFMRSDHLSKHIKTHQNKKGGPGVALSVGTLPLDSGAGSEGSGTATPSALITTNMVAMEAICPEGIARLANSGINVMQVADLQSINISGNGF
UniProt P05412, whole entry: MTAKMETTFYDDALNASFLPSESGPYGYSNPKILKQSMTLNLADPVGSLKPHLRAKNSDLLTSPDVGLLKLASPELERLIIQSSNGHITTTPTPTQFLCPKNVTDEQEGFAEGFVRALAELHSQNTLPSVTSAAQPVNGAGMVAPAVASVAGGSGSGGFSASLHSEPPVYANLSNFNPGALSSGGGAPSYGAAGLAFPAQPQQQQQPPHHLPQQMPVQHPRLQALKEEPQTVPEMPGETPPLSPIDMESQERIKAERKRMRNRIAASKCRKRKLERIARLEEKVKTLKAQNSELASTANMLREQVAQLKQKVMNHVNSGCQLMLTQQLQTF

[2] = biological target: TRF2 deltaB (residues 45-500) (Homo sapiens) (UniProt Q15554); test: binding assay; details: 150 mM KCl, purified recombinant protein, protein details: His tag, Sf9 baculovirus
SP1 (Homo sapiens) = SP1 (Homo sapiens) (UniProt P08047); test: binding assay; details: purified recombinant protein, protein details: Promega
[3] = biological target: AP1 (c-Jun) (Homo sapiens) (UniProt P05412); test: binding assay; details: purified recombinant protein, protein details: Promega
[4] = biological target: T1, NF-kappaB p50 (Homo sapiens); test: competition with a labelled probe; details: purified recombinant protein; protein details: Promega; variant of NFcpt decoy (NF01/02)

“AGTTGAGGGGACTTTCCCAGGCCTCACGCACACCAGC / CCCTCCTTGCTCGTCTTGCCTGGGAAAGTCCCCTCAACT [31F/42]”: binds ([1]; strand-exchange assay with 32D/41, inhibited by aurothioglucose and NF decoy, 25 C, label: 5' fluorescein on SEQ 45).
“AGTTGAGGGGACTTTCCCAGGCGACTCACTATAGGCGGTGTCTCGCTCGC / GGGAATGGTGTGGTGCCTATAGTGAGTCGCCTGGGAAAGTCCCCTCAACT [NF01F/14D]”: binds ([1]; fluorescence lowered about 30% with NF02/13, 50% or more with mismatched partners, 37 C, label: 5' fluorescein on SEQ 37, 3' DABCYL on SEQ 38).
“AGTTGAGGGGACTTTCCCAGGCGACTCACTATAGGCGGTGTCTCGCTCGC / GGGAATGGTGTGGTGCCTATAGTGAGTCGCCTGGGAAAGTCCCCTCAACT [NFkB duplex 01F/14D]”: binds ([1]; strand-exchange fluorescence assay, 30 C, label: 5' 6-FAM on SEQ 5, 3' DABCYL on SEQ 8).
“AGTTGAGGGGACTTTCCCAGGCGACTCACTATAGGCGGTGTCTCGCTCGC / GGGAATGGTGTGGTGCCTATAGTGAGTCGCCTGGGAAAGTCCCCTCAACT [NFkB duplex 01F/14]”: binds ([1]; strand-exchange fluorescence assay, p50 dose-dependent, 30 C, ZnSO4 1 uM, label: 5' 6-FAM on SEQ 1).
“AGTTGAGTTAGCGTTAGCGTTAGCGTTAGCGCAGGCGGTGTCTCGCTCGC / GGGAATGGTGTGGTGCCTGCGCTAACGCTAACGCTAACGCTAACTCAACT [T13C/16]”: no binding ([2]; strand-exchange fluorescence assay with T14B/15, 25 C, label: 5' Cy3 on SEQ 25, variant of T01C/06).
“AGTTGAGTTAGGGTTAGGGTTAGGGTTAGGGCAGGCGGTGTCTCGCTCGC / GGGAATGGTGTGGTGCCTGCCCTAACCCTAACCCTAACCCTAACTCAACT [T01C/06]”: binds ([2]; strand-exchange fluorescence assay with T02B/05, 25 C, label: 5' Cy3 on SEQ 21).
“ATTCGATCGGGGCGGGGCGACGAGCGGGAATGGACAGGTT / CGGTCAGAGAGTAGCCTGCTCGTCGCCCCGCCCCGATCGAAT [05C/08]”: binds (SP1 (Homo sapiens); multiplexed strand-exchange assay with 06B/07, p50 also present, 25 C, label: 5' Cy3 on SEQ 65).
“ATTCGATCGGGGCGGGGCGACGAGCGGGAATGGACAGGTT / CGGTCAGAGAGTAGCCTGCTCGTCGCCCCGCCCCGATCGAAT [SP05C/08B]”: binds (SP1 (Homo sapiens); strand exchange suppressed, more with mismatched partners, 25 C, label: 5' Cy3 on SEQ 29, 3' BHQ1 on SEQ 30).
“CGCTTGATGAGTCAGCCGGAAGTGGTTGGGTAAGGG / ATATCGTCCTGTCCGTTCCGGCTGACTCATCAAGCG [AP01C/04B]”: no binding (SP1 (Homo sapiens); strand-exchange fluorescence assay with AP02/03, 30 C, Zn, label: 5' Cy5 on SEQ 13, 3' BHQ3 on SEQ 16); binds ([3]; strand-exchange fluorescence assay with AP02/03, 30 C, MgCl2, label: 5' Cy5 on SEQ 13, 3' BHQ3 on SEQ …).
“CTCACGCACACCAGCGGGGACTTTCCCAGTATATAAAGACGAGCAAGCGG / GGTCAGAGAGTAGCCTATATACTGGGAAAGTCCCCGCTGGTGTGCGTGAG / CCGCTTGCTCGTCTTTATATACTGTGAACGTCACCAACCTGTCCATTCCC / GGGAATGGACAGGTTGAGGACTTACCCAGTATATAGGCTACTCTCTGACC [integrated tetramer Af/B5/C4/Dd]”: binds ([1]; fluorescence suppressed by p50, 25 C, folded or branched DNA).
“GCACTAAGGACTTTGCGCCACG (double strand) [NF03/04 decoy]”: no binding [4].
“GGGATTCGATCGGGGCGGGGCGACGAGCGTGGTTGGGTAAGGG / GGGAATGGTGTGGTGGCTCGTCGCCCCGCCCCGATCGAATCCC [SP01A/04B]”: binds (SP1 (Homo sapiens); strand-exchange fluorescence assay with SP02/03, 30 C, Zn, label: 5' Alexa 647 on SEQ 17, 3' BHQ3 on SEQ 20); no binding ([3]; strand-exchange fluorescence assay with SP02/03, 30 C, label: 5' Alexa 647 on SEQ 17, 3' BHQ3 on SEQ 20).

From US20110033951
